Among all 53,000 sequences or so, about 3,700 (7%) were called active.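 How the source made its calls: active means gene knockdowns whose robust z-score for IL-1 alpha signal is at least 2 or at most -2, so actives lie on both sides; inactive means the rest.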 The list shows a part of the results.
assay: Components of the Cytosolic LPS Sensing Pathway: Gene Identification via Genome-wide siRNA Screen; settings: RAW264.7 macrophages, IL-1a HTRF, actives lie on both sides, screened at 100 nM (by protocol), cells primed 5 h with Pam3CSK4 first;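 further: robust z of the log signal after scaling to non-targeting control siRNA wells of the plate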
In short: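 Using IL-1a HTRF as read-out, the screen measured release from RAW264.7 cells after 48h siRNA knockdown (100 nM), 5 h Pam3CSK4 priming and 24 h cytosolic LipidA. Values were expressed relative to negative-control wells as robust z-scores.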

z-score, active:
GGACGAGUGCCUGUUUUCATT against Med8 4.09

z-score, inactive:
GGAGCCUCAGGUCCAAAUGTT against Fancd2os 1.89
GCCCUCUUGUGAUUAAGCATT against Esr1 -0.959
CCAUCAGCCUUUAUAAACUTT against Ywhah -0.496
CCUAUAUUACACGUCAUUUTT against Trim30a -0.178
GCUAGUCUAGCCAUUGUCATT against Lamp3 0.469
GGCAGAUGGUAUCAGCUGUTT against Cd248 -1.11
GCUGACUCAUCCAAGAACUTT against Dmkn 0.276
CCUAAACUGCUUGCUGAUATT against Olfr1204 1.13
GGAAGGUGGAGUUUGAAAGTT against Rpap2 0.2
GGUGAUAUCUUUCCAUCUUTT against Wiz -0.176
GCCUGUUUAGAGCGUAAACTT against Numb 0.561
GCGAGAGACAACUGACUAATT against Zcchc13 -0.798
GGAAGGUCAAAGUCCUUUATT against Pitpnm2 -0.685
GGCUACAAUAAUGUUUCCCTT against Pglyrp3 1.7
GGCUUCCACAAAGAAAGACTT against Tsga8 -0.82
GCCAGAUGGUAGGCGAUUATT against Mamstr -0.637
GCAAUACGUUUGUGCAGAATT against Cacna1g 0.993
CCUUCAGACUGUCAACAAUTT against Chrm2 -0.386
GGAAGUCAAAAGUGAUUAGTT against Zbtb48 -0.0306
GGAAAUGAAGCAGACUGUGTT against Htr2b -0.69
GCCGGGCAAUGAAUUUACUTT against Ms4a5 0.419
GCCUGACUACUGAAGCUUGTT against Tma16 -0.819
GGUGUACAUGGACAUCAAGTT against Ppie 0.0171
GCUUCCAUAGGUUUAACUUTT against Efhb -0.517
GGCCAACUGGUAUUUCUUGTT against Acadm -1.18
GGCAGAUAGACAACUUUCUTT against Olfr92 -1.66
GGGAUUGAGAUCCUCAUACTT against Olfr1179 0.125
GCUCCAAUAGCGUAUAUUATT against Pigt -0.75
GGAAAACCAAGACCACAAATT against Hmgn5 1.39

Not a retest: entries from further up.
z-score, inactive:
GCCCUCUUGUGAUUAAGCATT against Esr1 -0.959
CCAUCAGCCUUUAUAAACUTT against Ywhah -0.496
CCUAUAUUACACGUCAUUUTT against Trim30a -0.178
GCUAGUCUAGCCAUUGUCATT against Lamp3 0.469
GGCAGAUGGUAUCAGCUGUTT against Cd248 -1.11
GCUGACUCAUCCAAGAACUTT against Dmkn 0.276
CCUAAACUGCUUGCUGAUATT against Olfr1204 1.13
